The target of the assay is T1, ubiquitin-like, containing PHD and RING finger domain, 1 (UHRF1) (human (endogenous in MOLT4 and REH)) (UniProt Q96T88).
T1 sequence: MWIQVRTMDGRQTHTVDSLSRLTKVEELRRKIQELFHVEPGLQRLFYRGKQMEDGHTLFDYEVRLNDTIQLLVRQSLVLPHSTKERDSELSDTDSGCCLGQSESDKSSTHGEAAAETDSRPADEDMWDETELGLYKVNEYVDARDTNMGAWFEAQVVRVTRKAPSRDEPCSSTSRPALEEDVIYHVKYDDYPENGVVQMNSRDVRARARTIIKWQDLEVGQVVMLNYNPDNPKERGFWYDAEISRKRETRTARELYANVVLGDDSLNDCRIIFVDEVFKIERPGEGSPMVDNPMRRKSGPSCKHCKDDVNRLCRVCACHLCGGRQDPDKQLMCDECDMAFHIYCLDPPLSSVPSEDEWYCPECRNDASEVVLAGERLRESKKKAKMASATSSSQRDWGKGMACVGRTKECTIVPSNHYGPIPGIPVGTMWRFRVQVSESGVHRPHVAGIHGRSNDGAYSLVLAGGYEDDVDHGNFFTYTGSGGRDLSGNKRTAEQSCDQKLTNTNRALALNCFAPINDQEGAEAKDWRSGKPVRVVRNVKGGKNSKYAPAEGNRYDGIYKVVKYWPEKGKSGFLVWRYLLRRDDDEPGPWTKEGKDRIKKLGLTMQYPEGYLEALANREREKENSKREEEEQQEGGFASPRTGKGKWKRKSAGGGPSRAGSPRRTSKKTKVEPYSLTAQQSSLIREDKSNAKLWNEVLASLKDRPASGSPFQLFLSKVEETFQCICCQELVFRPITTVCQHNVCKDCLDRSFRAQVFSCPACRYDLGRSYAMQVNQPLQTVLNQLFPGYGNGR
Nature of the assay: affinity purification with mass spectrometry; anti-UHRF1 IP and anti-IgG IP from REH cells on SDS-PAGE, Zn stain; bands at 90 kDa (UHRF1) and 50 kDa (cMyc) cut, in-gel digested with trypsin, LC-MS/MS (Orbitrap ELITE), FDR = 0.01.

Protein sequences, listed by entry. Tags and fused reporters are not part of them.
UniProt P01106: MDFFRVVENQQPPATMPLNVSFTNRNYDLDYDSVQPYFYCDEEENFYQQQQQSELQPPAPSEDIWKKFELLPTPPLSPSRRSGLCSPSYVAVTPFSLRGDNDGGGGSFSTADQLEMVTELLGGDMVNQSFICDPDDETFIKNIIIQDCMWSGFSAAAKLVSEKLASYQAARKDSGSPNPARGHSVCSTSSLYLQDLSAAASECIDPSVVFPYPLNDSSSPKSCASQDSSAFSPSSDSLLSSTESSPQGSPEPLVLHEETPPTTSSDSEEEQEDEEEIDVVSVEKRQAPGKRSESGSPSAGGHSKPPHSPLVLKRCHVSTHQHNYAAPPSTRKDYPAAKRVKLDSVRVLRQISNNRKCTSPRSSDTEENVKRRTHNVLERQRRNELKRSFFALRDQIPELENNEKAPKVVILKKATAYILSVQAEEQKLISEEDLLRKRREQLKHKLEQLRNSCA

No constants are given. Whether binding was seen depends on the method and setting. Binding seen in cells or lysates may run through a third protein. Here binding means that the protein was enriched with, or labelled near, the bait; the list need not be complete.

For c-Myc (from UniProt P01106 1-454), the binding entry was “binds”.

Source of the values: PMC9455066.
